Publication PMC12186615
Results are given in words; binding and its absence hold for the method and conditions named. Binding seen in cells or lysates may run through a third protein. These calls come from enrichment with a bait or labelling near it, and not all partners need be listed.

The chains behind the UniProt entries cited, without tags or fusion partners.
UniProt A2A9A2: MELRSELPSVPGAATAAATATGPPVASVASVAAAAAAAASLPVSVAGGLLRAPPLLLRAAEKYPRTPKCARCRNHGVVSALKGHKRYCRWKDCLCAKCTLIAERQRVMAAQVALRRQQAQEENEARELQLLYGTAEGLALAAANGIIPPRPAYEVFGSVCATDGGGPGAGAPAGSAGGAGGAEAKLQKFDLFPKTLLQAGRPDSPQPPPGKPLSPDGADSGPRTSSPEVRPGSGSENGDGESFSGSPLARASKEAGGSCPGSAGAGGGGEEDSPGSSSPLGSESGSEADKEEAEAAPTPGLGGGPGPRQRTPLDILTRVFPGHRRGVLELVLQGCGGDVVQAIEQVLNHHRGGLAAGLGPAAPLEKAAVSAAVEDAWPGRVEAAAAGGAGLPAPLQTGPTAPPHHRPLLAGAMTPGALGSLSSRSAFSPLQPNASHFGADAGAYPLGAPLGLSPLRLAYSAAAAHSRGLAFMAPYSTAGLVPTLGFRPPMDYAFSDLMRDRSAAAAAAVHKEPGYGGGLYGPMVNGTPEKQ
UniProt Q6PDQ2: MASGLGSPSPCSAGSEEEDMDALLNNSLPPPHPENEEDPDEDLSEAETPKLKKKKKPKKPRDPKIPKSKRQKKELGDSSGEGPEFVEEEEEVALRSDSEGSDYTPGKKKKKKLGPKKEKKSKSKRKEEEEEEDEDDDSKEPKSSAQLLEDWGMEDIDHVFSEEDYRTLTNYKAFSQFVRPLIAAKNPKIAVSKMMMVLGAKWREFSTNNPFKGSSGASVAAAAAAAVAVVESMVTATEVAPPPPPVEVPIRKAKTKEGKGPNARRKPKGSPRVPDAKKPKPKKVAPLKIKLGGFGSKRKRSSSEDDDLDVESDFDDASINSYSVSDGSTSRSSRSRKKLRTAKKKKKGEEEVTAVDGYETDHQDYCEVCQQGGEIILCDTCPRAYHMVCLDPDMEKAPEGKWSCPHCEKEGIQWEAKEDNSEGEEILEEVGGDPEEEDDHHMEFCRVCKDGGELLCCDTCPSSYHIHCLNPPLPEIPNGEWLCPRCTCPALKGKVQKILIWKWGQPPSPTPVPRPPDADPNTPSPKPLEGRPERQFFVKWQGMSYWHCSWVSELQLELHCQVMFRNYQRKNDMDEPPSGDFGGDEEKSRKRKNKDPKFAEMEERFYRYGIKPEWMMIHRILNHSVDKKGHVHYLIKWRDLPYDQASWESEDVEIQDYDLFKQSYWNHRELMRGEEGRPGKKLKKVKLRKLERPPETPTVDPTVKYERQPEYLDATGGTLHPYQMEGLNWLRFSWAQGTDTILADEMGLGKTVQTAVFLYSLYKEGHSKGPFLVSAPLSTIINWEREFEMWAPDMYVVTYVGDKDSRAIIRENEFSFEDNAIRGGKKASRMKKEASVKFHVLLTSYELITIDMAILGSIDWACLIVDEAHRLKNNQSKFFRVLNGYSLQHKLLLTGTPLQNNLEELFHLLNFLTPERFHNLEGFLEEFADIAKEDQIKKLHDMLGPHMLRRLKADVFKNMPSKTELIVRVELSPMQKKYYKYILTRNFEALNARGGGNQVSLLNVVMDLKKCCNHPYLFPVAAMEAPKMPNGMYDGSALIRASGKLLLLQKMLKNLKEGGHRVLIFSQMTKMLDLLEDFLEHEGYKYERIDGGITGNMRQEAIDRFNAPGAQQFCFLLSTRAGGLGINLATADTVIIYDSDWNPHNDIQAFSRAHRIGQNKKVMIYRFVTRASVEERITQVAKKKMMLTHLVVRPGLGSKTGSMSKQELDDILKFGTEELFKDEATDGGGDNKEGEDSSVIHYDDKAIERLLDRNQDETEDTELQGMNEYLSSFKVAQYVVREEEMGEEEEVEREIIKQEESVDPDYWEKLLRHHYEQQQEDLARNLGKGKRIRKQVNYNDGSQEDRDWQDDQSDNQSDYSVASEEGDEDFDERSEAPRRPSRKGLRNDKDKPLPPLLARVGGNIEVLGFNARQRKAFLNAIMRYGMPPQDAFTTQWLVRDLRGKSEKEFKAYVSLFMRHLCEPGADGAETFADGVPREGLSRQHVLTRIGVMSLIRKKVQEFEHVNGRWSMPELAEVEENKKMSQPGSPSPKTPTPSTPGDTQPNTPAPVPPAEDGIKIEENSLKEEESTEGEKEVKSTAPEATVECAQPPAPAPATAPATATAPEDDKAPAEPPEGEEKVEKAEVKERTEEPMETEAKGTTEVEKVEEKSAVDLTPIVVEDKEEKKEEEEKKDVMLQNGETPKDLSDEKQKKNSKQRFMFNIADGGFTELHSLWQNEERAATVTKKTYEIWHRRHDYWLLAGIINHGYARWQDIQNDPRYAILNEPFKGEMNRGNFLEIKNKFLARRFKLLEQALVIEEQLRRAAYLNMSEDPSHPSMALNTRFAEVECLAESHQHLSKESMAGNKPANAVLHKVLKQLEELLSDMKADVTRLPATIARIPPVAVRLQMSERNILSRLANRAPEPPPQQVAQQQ
UniProt Q80WT2: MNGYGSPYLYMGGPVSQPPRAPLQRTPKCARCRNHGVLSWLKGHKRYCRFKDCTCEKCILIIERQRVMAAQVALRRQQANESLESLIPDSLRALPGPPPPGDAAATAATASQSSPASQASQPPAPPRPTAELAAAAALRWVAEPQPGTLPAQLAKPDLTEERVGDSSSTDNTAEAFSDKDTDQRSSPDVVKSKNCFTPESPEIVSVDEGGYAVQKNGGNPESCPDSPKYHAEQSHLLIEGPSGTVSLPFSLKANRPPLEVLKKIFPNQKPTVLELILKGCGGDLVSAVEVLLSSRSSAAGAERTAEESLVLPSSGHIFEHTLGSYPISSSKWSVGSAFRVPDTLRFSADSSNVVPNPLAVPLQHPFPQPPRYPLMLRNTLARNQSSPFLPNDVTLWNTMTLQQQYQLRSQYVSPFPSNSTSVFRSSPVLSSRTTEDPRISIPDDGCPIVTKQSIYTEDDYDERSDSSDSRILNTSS
UniProt Q8CFG4: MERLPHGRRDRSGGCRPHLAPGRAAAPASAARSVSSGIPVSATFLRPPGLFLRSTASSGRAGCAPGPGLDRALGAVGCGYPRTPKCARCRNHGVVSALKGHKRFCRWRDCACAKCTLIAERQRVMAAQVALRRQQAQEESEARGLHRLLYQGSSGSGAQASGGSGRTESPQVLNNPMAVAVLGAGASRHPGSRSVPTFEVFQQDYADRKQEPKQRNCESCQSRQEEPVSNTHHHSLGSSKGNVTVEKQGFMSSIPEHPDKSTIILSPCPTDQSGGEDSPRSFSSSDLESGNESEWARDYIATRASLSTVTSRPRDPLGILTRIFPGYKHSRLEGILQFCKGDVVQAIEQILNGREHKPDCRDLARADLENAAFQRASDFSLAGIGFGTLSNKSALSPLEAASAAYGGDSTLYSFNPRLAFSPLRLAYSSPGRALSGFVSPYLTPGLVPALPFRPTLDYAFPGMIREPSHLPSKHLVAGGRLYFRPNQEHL
UniProt O09106: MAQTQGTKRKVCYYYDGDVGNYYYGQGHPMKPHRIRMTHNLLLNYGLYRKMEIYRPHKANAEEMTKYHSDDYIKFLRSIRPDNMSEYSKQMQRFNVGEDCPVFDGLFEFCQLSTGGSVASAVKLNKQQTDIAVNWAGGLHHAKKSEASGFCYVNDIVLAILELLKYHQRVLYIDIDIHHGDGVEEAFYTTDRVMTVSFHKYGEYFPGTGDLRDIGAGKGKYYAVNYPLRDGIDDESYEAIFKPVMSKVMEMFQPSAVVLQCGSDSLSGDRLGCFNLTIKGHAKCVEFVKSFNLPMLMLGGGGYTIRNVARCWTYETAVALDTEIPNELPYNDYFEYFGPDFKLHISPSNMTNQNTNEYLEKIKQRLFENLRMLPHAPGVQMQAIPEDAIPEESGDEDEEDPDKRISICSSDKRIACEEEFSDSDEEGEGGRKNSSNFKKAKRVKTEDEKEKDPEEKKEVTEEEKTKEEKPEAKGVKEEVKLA
UniProt B1AWL2: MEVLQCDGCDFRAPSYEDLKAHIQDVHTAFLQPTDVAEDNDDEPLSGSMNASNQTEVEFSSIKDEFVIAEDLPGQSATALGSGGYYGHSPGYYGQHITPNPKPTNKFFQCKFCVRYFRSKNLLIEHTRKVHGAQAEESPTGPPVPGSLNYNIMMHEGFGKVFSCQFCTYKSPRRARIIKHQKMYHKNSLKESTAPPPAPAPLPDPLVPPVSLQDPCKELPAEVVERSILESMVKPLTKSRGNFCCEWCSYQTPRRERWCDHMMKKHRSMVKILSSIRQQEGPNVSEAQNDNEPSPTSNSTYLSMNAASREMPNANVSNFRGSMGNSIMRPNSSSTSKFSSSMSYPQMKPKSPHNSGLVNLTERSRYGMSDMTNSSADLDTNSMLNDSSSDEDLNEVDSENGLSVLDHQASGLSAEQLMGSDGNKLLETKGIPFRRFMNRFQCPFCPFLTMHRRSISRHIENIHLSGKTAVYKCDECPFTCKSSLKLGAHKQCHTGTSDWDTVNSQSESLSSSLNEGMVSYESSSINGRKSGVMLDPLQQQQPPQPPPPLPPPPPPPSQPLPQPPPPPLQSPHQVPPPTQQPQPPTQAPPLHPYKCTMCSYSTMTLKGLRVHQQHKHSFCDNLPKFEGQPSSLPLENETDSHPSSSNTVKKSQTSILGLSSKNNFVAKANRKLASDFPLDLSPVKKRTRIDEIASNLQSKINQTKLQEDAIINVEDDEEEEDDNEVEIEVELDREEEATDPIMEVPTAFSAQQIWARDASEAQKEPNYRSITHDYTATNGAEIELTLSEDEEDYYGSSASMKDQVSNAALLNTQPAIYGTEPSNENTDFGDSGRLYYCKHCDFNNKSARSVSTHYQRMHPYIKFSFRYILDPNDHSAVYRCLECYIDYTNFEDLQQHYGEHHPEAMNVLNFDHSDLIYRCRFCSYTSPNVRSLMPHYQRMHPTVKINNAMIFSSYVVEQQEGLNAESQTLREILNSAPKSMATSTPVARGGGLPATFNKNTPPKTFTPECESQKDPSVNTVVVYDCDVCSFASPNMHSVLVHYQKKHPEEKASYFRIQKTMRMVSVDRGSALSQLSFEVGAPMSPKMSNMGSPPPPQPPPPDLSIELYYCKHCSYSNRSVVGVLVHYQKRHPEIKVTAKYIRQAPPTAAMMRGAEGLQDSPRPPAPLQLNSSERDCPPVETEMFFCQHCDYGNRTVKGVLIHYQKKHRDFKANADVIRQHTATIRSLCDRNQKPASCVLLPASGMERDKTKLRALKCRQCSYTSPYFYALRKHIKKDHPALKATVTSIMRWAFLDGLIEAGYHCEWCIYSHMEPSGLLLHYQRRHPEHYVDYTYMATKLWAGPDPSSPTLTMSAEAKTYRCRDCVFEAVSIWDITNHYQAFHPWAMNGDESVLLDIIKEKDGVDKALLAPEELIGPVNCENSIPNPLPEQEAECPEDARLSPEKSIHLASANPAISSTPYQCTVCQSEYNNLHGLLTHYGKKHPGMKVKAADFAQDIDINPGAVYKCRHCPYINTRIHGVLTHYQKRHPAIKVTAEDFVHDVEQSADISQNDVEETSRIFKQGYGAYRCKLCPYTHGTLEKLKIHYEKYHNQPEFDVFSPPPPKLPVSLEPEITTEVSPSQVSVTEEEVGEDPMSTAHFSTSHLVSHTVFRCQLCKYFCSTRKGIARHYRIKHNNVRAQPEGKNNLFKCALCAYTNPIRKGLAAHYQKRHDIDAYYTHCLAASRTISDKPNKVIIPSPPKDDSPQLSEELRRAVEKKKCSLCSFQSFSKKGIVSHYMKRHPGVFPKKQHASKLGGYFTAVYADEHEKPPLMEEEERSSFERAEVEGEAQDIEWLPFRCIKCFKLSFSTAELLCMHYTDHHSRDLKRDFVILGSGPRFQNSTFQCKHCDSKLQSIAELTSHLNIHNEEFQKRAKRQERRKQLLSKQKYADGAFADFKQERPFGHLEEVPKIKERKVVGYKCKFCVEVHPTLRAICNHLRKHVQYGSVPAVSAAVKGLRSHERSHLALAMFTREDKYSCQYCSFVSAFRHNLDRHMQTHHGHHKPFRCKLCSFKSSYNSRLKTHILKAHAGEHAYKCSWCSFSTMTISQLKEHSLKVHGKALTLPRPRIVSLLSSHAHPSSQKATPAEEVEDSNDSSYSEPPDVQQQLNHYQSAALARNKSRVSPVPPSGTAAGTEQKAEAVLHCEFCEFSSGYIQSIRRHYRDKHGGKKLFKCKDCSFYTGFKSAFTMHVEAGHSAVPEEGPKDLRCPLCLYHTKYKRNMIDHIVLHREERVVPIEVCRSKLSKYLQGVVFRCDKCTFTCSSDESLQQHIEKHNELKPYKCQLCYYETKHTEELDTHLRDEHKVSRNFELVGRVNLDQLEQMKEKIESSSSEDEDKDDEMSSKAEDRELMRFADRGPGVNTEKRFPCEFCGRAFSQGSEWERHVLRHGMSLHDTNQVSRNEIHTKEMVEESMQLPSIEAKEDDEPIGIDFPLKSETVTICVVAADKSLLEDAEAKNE

The molecules below were run against Dmrta2 with an N-terminal 2x HA epitope (Dmrta2^2XHA knock-in allele) (mouse) (UniProt A2A9A2) (assay: affinity purification with mass spectrometry; RIME: E12.5 cortices of Dmrta2^2XHA and WT control embryos fixed in 1% formaldehyde, sonicated chromatin extract, anti-HA antibody on Protein G magnetic beads overnight at 4°C, RIPA washes (0.5 M LiCl), nano-LC-ESI-MS/MS).

Molecule | binding
CHD4 (from UniProt Q6PDQ2 1-1915) | binds
Dmrt3 (endogenous, embryonic cortex) (from UniProt Q80WT2 1-476) | binds
Dmrta1 (from UniProt Q8CFG4 1-490) | binds
E3 ubiquitin ligase BRE1a (from UniProt Q5DTM8 1-973) (enzyme) | binds
HDAC1 (endogenous, embryonic cortex) (from UniProt O09106 1-482) (enzyme) | binds
HDAC2 (endogenous, embryonic cortex) (from UniProt P70288 1-488) (enzyme) | binds
Zfp462 (from UniProt B1AWL2 1-2495) | binds
Zfp423 (endogenous, embryonic cortex) (protein, UniProt Q80TS5 1-1292) MSRRKQAKPRSVKVEEGEASDFSLAWDSSVAAAGGLEGEPECDRKTSRALEDRNSVTSQEERNEDDEDVEDESIYTCDHCQQDFESLADLTDHRAHRCPGDGDDDPQLSWVASSPSSKDVASPTQMIGDGCDLGLGEEEGGTGLPYPCQFCDKSFIRLSYLKRHEQIHSDKLPFKCTFCSRLFKHKRSRDRHIKLHTGDKKYHCHECEAAFSRSDHLKIHLKTHSSSKPFKCSVCKRGFSSTSSLQSHMQAHKKNKEHLAKSEKEAKKDDFMCDYCEDTFSQTEELEKHVLTLHPQLSEKADLQCIHCPEVFVDESTLLAHIHQAHANQKHKCPMCPEQFSSVEGVYCHLDSHRQPDSSNHSVSPDPVLGSVASMSSATPDSSASVERGSTPDSTLKPLRGQKKMRDDGQSWPKVVYSCPYCSKRDFTSLAVLEIHLKTIHADKPQQSHTCQICLDSMPTLYNLNEHVRKLHKSHAYPVMQFGNISAFHCNYCPEMFADINSLQEHIRVSHCGPNANPPDGNNAFFCNQCSMGFLTESSLTEHIQQAHCSVGSTKLESPVVQPTQSFMEVYSCPYCTNSPIFGSILKLTKHIKENHKNIPLAHSKKSKAEQSPVSSDVEVSSPKRQRLSGSANSISNGEYPCNQCDLKFSNFESFQTHLKLHLELLLRKQACPQCKEDFDSQESLLQHLTVHYMTTSTHYVCESCDKQFSSVDDLQKHLLDMHTFVLYHCTLCQEVFDSKVSIQVHLAVKHSNEKKMYRCTACNWDFRKEADLQVHVKHSHLGNPAKAHKCIFCGETFSTEVELQCHITTHSKKYNCRFCSKAFHAVILLEKHLREKHCVFDAAAENGTANGVPPTSTKKAEPADLQGMLLKNPEAPNSHEASEDDVDASEPMYGCDICGAAYTMEVLLQNHRLRDHNIRPGEDDGSRKKAEFIKGSHKCNVCSRTFFSENGLREHLQTHRGPAKHYMCPICGERFPSLLTLTEHKVTHSKSLDTGTCRICKMPLQSEEEFIEHCQMHPDLRNSLTGFRCVVCMQTVTSTLELKIHGTFHMQKLAGSSAASSPNGQGLQKLYKCALCLKEFRSKQDLVRLDVNGLPYGLCAGCMARSANGQVGGLAPPEPADRPCAGLRCPECNVKFESAEDLESHMQVDHRDLTPETSGPRKGAQTSPVPRKKTYQCIKCQMTFENEREIQIHVANHMIEEGINHECKLCNQMFDSPAKLLCHLIEHSFEGMGGTFKCPVCFTVFVQANKLQQHIFAVHGQEDKIYDCSQCPQKFFFQTELQNHTMSQHAQ | binds
Zfp521 (protein, UniProt Q6KAS7 1-1311) MSRRKQAKPRSLKDPNCKLEDKIEDGEAVDCKKRPEDGEELEEDAVHSCDSCLQVFESLSDITEHKIHQCQLTDGVDVEDDPSCSWPASSPSSKDQTSPSHGEGCDFGEEEGGPGLPYPCQFCDKSFSRLSYLKHHEQSHSDKLPFKCTYCSRLFKHKRSRDRHIKLHTGDKKYHCSECDAAFSRSDHLKIHLKTHTSNKPYKCAVCRRGFLSSSSLHGHMQVHERNKDGSQSGSRMEDWKMKDTQKCSQCEEGFDFPEDLQKHIAECHPECSPNEDRAALQCMYCHELFVEETSLMNHIEQVHGGEKKNSCSICSESFLTVEELYSHMDSHQQPESCNHSNSPSLVTVGYTSVSSTTPDSNLSVDSSTMVEAAPPIPKSRGRKRAAQQTSDMTGPSSKQAKVTYSCIYCNKQLFSSLAVLQIHLKTMHLDKPEQAHICQYCLEVLPSLYNLNEHLKQVHEAQDPGLIVSAMPAIVYQCNFCSEVVNDLNTLQEHIRCSHGFANPAAKDSNAFFCPHCYMGFLTDSSLEEHIRQVHCDLSGSRFGSPVLGTPKEPVVEVYSCSYCTNSPIFNSVLKLNKHIKENHKNIPLALNYIHNGKKSRALSPLSPVAIEQTTLKMMQTVGGGPARASGEYICNQCGAKYTSLDSFQTHLKTHLDTVLPKLTCPQCNKEFPNQESLLKHVTIHFMITSTYYICESCDKQFTSVDDLQKHLLDMHTFVFFRCTLCQEVFDSKVSIQLHLAVKHSNEKKVYRCTSCNWDFRNETDLQLHVKHNHLENQGKVHKCIFCGESFGTEVELQCHITTHSKKYNCRFCSKAFHAVILLEKHLREKHCVFETKTPNCGTNGASEQVQKEEAELQTLLTNSQESHNSHDGSEEDVDSSEPMYGCDICGAAYTMETLLQNHQLRDHNIRPGESAIVKKKAELIKGNYKCNVCSRTFFSENGLREHMQTHLGPVKHYMCPICGERFPSLLTLTEHKVTHSKSLDTGNCRICKMPLQSEEEFLEHCQMHPDLRNSLTGFRCVVCMQTVTSTLELKIHGTFHMQKTGNGSSVQTTGRGQHVQKLYKCASCLKEFRSKQDLVKLDINGLPYGLCAGCVNLSKSSSPGLSLPPGASRPGLGQNESLSAMEGKGKAGGLKTRCSSCNVKFESESELQNHIQTVHRELVPDANSTQLKTPQVSPMPRISPSQSDEKKTYQCIKCQMVFYNEWDIQVHVANHMIDEGLNHECKLCSQTFDSPAKLQCHLIEHSFEGMGGTFKCPVCFTVFVQANKLQQHIFSAHGQEDKIYDCTQCPQKFFFQTELQNHTMTQHSS | binds
